Test results from the supplement of paper PMC10849652.
The other results are listed elsewhere or left out.

By UniProt entry, the sequences of proteins in these tests, tags left out. Where a name states a change or a piece, a line headed by the entry shows the natural chain unless it says otherwise.
UniProt A6H8Y1: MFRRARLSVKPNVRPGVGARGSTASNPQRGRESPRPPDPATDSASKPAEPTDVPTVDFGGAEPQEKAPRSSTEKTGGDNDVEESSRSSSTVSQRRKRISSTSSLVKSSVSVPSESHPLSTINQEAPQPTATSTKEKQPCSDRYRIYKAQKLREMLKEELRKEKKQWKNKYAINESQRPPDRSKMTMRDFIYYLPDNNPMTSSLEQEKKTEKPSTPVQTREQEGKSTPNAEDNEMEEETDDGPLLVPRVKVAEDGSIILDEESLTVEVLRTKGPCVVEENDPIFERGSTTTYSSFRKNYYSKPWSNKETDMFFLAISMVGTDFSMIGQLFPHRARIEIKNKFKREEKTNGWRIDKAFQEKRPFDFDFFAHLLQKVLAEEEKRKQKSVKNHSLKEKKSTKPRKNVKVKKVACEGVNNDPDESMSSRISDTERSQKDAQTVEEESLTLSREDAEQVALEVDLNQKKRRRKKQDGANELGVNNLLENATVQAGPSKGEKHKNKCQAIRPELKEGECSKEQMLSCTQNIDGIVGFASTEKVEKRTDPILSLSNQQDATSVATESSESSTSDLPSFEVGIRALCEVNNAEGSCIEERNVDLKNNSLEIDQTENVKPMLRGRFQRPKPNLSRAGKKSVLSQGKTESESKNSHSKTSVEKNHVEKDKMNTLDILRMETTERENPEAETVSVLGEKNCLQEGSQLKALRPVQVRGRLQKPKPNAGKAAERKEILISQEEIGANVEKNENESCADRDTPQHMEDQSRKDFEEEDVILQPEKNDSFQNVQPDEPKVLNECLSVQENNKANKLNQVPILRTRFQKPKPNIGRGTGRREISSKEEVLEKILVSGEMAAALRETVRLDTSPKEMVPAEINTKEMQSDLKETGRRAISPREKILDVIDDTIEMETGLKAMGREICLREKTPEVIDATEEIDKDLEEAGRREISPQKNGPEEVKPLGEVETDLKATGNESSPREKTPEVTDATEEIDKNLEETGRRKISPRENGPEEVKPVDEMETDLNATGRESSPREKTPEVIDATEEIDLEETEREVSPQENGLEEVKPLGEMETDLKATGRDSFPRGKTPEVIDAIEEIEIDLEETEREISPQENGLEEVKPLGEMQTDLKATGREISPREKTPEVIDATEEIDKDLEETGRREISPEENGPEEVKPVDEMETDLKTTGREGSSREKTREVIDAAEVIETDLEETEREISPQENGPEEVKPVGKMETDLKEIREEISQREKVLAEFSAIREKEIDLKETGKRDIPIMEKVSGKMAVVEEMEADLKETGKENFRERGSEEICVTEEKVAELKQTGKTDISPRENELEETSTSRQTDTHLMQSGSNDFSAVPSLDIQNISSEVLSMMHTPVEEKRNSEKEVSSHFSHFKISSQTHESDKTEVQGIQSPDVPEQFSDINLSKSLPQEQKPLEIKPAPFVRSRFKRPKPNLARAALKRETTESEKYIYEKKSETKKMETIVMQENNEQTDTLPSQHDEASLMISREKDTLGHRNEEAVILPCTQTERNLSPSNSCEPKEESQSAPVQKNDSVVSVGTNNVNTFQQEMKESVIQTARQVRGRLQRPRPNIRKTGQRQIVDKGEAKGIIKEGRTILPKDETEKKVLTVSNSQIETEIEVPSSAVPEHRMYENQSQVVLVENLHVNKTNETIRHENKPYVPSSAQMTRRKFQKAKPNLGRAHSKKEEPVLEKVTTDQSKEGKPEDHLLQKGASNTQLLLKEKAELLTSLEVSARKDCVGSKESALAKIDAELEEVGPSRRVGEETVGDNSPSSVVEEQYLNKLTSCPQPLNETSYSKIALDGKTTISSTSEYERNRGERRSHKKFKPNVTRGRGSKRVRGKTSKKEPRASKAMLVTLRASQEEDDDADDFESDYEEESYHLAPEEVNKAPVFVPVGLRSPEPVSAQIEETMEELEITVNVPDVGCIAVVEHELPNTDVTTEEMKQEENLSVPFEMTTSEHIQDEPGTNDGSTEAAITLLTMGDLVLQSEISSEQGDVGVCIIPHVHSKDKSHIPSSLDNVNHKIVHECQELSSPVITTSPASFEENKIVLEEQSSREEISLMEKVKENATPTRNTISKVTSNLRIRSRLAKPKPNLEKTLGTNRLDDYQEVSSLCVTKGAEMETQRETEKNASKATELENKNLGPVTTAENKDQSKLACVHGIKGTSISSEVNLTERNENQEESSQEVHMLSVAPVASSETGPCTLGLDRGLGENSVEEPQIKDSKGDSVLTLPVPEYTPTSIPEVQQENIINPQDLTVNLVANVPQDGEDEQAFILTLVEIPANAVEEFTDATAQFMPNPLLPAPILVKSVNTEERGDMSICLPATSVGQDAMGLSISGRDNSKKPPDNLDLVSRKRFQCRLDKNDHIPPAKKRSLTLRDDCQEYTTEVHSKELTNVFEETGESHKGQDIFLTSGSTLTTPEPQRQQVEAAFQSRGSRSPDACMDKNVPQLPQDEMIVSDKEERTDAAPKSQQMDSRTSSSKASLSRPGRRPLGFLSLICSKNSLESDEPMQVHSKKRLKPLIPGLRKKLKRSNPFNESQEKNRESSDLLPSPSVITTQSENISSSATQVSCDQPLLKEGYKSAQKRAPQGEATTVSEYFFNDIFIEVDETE
UniProt Q6AI39, whole entry, looked up: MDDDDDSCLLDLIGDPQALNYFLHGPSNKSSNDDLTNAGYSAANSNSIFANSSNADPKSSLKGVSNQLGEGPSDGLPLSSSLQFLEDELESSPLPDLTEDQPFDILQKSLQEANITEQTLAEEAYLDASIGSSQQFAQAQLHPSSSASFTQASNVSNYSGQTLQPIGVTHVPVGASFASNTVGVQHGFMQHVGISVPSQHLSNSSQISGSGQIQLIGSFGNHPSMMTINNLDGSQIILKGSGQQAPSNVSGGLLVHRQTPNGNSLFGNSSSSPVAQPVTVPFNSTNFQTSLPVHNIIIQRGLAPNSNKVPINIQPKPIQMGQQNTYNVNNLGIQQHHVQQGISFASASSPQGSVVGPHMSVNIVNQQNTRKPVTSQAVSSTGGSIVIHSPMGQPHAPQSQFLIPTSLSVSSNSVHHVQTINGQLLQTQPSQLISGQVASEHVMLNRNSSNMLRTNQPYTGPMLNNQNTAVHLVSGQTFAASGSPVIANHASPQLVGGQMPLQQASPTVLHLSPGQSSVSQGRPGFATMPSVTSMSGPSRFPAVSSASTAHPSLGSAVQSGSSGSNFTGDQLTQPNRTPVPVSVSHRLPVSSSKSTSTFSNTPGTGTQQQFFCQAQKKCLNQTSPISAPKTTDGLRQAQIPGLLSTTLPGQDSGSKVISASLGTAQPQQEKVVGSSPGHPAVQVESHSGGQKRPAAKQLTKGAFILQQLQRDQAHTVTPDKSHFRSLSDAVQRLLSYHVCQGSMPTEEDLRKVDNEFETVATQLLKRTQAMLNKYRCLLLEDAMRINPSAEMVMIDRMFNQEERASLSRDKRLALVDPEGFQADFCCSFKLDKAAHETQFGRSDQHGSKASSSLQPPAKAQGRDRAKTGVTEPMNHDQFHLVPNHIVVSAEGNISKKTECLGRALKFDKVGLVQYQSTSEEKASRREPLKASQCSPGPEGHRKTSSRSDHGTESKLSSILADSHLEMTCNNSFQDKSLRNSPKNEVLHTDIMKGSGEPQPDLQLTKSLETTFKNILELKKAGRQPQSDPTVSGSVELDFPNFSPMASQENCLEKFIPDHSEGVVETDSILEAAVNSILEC
UniProt Q9NWD9: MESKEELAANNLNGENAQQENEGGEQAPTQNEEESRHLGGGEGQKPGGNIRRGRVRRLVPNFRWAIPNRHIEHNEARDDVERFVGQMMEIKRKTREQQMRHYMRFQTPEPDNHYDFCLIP
UniProt Q96IK1: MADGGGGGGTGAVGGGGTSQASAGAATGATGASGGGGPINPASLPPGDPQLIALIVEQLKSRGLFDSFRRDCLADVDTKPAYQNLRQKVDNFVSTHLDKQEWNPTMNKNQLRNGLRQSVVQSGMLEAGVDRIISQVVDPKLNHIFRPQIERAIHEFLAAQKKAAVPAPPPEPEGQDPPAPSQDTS
UniProt Q8TBE0: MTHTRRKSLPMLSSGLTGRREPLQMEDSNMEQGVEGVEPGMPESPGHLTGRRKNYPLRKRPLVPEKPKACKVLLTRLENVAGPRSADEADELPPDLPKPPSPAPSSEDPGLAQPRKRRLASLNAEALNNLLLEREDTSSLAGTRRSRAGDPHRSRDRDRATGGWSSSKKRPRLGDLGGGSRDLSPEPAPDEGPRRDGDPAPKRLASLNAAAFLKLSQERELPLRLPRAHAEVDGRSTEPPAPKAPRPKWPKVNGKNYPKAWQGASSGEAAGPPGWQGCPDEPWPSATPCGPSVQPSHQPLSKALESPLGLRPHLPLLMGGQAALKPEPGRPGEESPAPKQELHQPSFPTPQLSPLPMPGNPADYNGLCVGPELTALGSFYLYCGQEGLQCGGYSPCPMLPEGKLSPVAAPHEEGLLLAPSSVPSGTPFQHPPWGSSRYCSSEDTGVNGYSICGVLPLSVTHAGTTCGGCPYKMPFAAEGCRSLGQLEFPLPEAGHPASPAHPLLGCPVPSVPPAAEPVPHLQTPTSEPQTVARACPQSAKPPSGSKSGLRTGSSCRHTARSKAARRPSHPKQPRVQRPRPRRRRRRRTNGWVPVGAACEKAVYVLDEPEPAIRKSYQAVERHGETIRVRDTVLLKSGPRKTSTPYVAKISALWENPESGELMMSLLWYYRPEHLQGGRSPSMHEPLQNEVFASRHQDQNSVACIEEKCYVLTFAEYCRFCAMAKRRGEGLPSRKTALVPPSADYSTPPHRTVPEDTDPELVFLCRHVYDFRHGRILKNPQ
UniProt P10415, whole entry, looked up: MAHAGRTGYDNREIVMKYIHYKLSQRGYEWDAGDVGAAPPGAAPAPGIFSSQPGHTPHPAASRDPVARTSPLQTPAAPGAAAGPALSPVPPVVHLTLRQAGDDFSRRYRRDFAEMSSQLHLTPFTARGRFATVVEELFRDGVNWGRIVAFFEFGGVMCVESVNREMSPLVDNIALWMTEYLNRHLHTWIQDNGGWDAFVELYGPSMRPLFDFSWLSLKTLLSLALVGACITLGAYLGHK
UniProt O75363: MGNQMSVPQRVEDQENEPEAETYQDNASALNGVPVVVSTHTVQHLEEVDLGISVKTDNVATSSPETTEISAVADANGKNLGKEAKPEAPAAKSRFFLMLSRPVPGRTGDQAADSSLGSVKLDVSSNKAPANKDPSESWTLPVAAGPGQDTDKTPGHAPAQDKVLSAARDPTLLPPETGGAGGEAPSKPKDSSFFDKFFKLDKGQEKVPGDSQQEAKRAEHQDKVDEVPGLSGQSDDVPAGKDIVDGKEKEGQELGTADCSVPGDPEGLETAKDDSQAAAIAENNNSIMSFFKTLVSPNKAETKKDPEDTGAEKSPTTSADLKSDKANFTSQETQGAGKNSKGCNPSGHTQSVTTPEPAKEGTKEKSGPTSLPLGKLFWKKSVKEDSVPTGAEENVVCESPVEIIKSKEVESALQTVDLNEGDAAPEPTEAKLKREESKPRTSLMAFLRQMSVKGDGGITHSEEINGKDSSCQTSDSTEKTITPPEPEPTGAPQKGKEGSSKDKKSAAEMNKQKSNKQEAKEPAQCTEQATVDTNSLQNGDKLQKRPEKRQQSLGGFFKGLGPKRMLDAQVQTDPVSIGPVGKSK
UniProt Q5PSV4: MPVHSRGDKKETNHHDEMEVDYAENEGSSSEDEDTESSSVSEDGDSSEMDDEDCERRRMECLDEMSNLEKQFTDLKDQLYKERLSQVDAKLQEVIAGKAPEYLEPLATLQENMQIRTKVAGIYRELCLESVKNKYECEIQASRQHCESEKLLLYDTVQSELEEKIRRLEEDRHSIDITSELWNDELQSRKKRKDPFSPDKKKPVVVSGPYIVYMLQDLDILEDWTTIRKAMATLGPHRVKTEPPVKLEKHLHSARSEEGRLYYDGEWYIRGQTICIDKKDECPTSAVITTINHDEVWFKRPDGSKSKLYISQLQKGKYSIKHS
UniProt Q9BXY8: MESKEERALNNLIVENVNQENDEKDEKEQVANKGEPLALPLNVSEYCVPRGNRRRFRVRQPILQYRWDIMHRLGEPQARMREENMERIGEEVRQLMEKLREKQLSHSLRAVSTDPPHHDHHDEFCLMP
UniProt Q8N9N5: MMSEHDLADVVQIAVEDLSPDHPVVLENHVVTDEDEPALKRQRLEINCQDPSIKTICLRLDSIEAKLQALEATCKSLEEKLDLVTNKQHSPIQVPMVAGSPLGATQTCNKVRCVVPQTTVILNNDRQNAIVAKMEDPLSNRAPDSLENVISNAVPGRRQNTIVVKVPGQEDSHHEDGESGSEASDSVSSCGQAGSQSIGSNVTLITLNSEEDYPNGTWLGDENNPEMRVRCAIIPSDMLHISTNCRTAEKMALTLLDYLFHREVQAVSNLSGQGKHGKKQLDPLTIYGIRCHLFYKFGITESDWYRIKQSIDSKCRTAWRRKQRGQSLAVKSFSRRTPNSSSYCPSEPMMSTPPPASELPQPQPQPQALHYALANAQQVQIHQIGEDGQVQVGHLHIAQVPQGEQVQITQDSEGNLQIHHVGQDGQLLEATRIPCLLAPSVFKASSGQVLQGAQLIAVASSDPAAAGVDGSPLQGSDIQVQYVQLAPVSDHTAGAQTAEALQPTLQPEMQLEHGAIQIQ

compound: C1=CC=C(C=C1)C2=NC(=C(N2)C3=CC=NC=C3)C4=CC(=C(C=C4)Cl)O; assay: log2 fold change, soluble protein after heating vs DMSO (PISA); higher = thermal stabilisation; K562 lysate, 10 uM; active = over 0.2 and 3.5 SD of the protein, either way, in both replicates (recomputed)
Method in brief: (§1)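 To prepare the extract, K562 pellets were dounce-homogenised in PBS pH 7.4 with 1 mM MgCl2, giving crude material at 1 mg/mL protein. This was treated with 10 μM compound for 30 min, then heated in aliquots for 3 min over 48°C-58°C before pooling and addition of NP-40 to 0.5% at 4°C. Centrifugation at 21,000xg for 90 min left soluble protein in the supernatant, which TMTpro 16plex LC-MS/MS quantified with equalised channel sums. Results are log-two fold changes in thermal stability compared with solvent controls, from duplicates.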

log2 fold change, inactive:
BCL7A (UniProt Q4VC05) 0.166
BHLHE40 (UniProt O14503) -0.019
BMP1 (UniProt P13497) -0.081
BDP1 (UniProt A6H8Y1) -0.135
BICRAL (UniProt Q6AI39) 0.076
BEX4 (UniProt Q9NWD9) -0.001
BOD1 (UniProt Q96IK1) 0.021
BAHD1 (UniProt Q8TBE0) -0.012
BPTF (UniProt F5GXF5) 0.066
BCL2 (UniProt P10415) 0.271
BRWD1 (UniProt Q9NSI6) -0.125
BCAS1 isoform 2 (UniProt O75363) 0.069

compound: C1=CC=C2C(=C1)C3=NNC4=CC=CC(=C43)C2=O; assay: as above
Method in brief: as §1

log2 fold change, inactive:
BRAF, A0A2R8Y8E0 0.119
BRMS1L (UniProt Q5PSV4) -0.234
BCAP31, A0A2R8Y5M6 0.074
BEX2 isoform 2 (UniProt Q9BXY8) 0.147
BCL2L11 (UniProt O43521) -0.075

compound: C1CCN(C1)C(=O)NC2=CC=CC(=C2)NC3=NC=C(C(=N3)NCCC4=CN=CN4)Br; assay: as above
Method in brief: as §1

log2 fold change, inactive:
BBX (UniProt Q8WY36) 0.059
BDP1 (UniProt A6H8Y1) -0.154
BRAF, A0A2R8Y8E0 0.067
BANP isoform 7 (UniProt Q8N9N5) 0.129
BRF2 (UniProt Q9HAW0) -0.191
BRMS1L (UniProt Q5PSV4) -0.039
BCAP31, A0A2R8Y5M6 -0.093
BNIP2 (UniProt H7C096) 0.036
BICRAL (UniProt Q6AI39) -0.151
BTG3 isoform 2 (UniProt Q14201) 0.227
BNIP3L (UniProt O60238) -0.019
BTBD2 (UniProt Q9BX70) 0.015
BPIFB1 (UniProt Q8TDL5) -0.26
BCAS1 isoform 2 (UniProt O75363) -0.048

compound: C1CN(CCC1(CC2=CC=C(C=C2)Cl)N)C3=NC=NC4=C3C=CN4; assay: as above
Method in brief: as §1

log2 fold change, inactive:
BBX (UniProt Q8WY36) -0.135
BDP1 (UniProt A6H8Y1) 0.17
BRAF, A0A2R8Y8E0 -0.045
BANP isoform 7 (UniProt Q8N9N5) 0.109
BRF2 (UniProt Q9HAW0) 0.222
BRMS1L (UniProt Q5PSV4) -0.07
BCAP31, A0A2R8Y5M6 0.006
BNIP2 (UniProt H7C096) -0.021
BICRAL (UniProt Q6AI39) 0.042
BTG3 isoform 2 (UniProt Q14201) -0.011
BNIP3L (UniProt O60238) 0.057
BTBD2 (UniProt Q9BX70) -0.044
BPIFB1 (UniProt Q8TDL5) 0.045
BCAS1 isoform 2 (UniProt O75363) -0.043
